Measurements as given in US4656248 (dated 1987).

Test: peptide synthesis
Conditions: acetate, one disulfide bridge, sequence written open

## Pmp-D-Tyr(Et)-Phe-Val-Asn-Cys-Pro-Arg(NH2)
Oxidative folding step, run 1
  crude purity (method not given): 15% pure and 23% pure
Oxidative folding step, based on purity of the starting material
  oxidative folding yield: 38%
Purification step
  step yield: 97%

“And” between values parts separate entries of the source, which are not always exact repeats. Identical values can stand only once.
